The list shows a part of the results.
Key:
Test in all cases: log2 fold change, soluble protein after heating vs DMSO (PISA); higher = thermal stabilisation; K562 lysate, 10 uM; active = over 0.2 and 3.5 SD of the protein, either way, in both replicates (recomputed)
[1] = compound: C1=CC=C(C=C1)[C@H](COC2=CC3=C(C=C2)NC(=O)N3)NC(=O)C4=CC=CN(C4=O)CC5=CC(=C(C=C5)F)F
Summary of the method: (§1)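 A 30 min treatment with 10 μM compound was applied to crude K562 extract at 1 mg/mL protein in PBS pH 7.4 with 1 mM MgCl2. Heating for 3 min spanned 48°C-58°C, after which aliquots were pooled, adjusted to 0.5% NP-40 at 4°C and spun at 21,000xg for 90 min. TMTpro 16plex LC-MS/MS of the supernatant, with channel sums equalised, gave values recorded as log-two fold change in thermal stability against solvent controls, from duplicates.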

Amino acid sequences for entries named in this document (tags omitted). A change or cut given only in a name is not applied to a line headed by its entry.
UniProt Q8TCD5: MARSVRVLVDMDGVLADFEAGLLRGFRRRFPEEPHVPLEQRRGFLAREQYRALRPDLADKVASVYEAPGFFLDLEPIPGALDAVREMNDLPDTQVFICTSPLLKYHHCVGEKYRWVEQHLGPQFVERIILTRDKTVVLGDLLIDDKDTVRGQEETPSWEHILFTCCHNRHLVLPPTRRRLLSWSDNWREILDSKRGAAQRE
UniProt O15118: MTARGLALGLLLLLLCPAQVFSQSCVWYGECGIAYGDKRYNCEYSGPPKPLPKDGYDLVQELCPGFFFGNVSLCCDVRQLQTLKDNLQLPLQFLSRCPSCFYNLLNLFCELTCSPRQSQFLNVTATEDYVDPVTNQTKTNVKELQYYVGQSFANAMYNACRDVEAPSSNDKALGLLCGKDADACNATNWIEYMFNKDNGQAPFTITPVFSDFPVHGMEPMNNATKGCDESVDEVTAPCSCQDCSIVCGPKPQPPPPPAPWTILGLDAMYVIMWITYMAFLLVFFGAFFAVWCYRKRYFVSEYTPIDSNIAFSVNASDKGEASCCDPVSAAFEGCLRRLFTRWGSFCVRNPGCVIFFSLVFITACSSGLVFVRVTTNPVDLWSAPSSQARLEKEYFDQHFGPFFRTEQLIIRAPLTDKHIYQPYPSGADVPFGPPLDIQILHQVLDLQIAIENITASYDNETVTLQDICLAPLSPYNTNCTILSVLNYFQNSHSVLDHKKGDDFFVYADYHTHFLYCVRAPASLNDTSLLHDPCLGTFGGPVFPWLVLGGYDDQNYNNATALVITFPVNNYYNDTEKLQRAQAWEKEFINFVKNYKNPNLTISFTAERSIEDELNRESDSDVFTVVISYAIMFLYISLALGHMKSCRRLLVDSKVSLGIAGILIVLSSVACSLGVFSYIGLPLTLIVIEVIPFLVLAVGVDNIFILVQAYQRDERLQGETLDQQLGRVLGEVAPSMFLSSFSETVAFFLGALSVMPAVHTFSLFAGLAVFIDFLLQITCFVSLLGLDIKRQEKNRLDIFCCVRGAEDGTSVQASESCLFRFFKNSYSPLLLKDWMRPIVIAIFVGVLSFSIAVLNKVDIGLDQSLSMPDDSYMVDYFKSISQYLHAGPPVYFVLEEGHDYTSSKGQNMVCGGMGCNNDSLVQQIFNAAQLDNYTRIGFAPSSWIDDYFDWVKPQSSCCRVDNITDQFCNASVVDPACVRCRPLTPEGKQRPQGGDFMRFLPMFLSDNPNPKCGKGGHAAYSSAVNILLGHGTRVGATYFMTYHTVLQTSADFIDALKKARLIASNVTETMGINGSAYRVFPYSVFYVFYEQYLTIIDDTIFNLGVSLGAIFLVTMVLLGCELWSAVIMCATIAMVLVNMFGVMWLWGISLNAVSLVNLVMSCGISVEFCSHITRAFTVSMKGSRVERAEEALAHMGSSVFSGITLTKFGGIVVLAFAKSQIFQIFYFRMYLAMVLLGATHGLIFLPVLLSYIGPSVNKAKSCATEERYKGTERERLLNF
UniProt Q9BV86: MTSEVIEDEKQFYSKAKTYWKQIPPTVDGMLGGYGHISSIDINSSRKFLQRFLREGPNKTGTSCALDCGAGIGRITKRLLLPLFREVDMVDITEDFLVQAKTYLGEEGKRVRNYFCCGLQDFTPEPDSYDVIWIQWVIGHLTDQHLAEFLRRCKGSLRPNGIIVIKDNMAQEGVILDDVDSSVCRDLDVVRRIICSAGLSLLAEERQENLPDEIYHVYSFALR
UniProt Q9NXX6: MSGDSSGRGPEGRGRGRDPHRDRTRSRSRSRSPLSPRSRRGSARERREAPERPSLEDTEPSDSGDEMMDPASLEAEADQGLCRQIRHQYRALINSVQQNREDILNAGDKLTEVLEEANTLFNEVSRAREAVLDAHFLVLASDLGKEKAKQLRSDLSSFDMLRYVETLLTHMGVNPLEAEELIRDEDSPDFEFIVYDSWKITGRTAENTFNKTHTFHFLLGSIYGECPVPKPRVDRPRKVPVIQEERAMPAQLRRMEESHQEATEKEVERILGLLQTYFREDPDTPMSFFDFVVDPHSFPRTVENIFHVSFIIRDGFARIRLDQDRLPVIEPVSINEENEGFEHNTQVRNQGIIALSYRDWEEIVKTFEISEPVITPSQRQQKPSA
UniProt Q9HAN9, whole entry, looked up: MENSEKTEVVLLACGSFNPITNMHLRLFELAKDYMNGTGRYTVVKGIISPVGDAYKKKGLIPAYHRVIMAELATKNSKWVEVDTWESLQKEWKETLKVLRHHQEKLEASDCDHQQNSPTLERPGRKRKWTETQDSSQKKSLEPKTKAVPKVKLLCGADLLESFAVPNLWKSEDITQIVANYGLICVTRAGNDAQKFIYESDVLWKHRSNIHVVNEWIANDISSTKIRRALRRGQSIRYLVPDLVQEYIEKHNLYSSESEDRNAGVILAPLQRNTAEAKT
UniProt Q8TEA1: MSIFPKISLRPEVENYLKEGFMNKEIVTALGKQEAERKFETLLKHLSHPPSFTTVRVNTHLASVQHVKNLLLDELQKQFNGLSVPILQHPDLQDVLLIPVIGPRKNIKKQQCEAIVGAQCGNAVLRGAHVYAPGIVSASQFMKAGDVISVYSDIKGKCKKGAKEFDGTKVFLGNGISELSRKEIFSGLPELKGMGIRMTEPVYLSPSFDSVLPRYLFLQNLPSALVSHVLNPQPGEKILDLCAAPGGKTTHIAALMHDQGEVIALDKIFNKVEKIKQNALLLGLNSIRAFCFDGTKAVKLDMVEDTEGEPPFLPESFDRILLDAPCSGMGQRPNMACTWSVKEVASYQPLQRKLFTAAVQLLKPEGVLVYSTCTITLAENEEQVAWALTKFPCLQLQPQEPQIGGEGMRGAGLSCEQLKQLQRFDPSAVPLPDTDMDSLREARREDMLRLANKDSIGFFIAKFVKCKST
UniProt Q5TFE4: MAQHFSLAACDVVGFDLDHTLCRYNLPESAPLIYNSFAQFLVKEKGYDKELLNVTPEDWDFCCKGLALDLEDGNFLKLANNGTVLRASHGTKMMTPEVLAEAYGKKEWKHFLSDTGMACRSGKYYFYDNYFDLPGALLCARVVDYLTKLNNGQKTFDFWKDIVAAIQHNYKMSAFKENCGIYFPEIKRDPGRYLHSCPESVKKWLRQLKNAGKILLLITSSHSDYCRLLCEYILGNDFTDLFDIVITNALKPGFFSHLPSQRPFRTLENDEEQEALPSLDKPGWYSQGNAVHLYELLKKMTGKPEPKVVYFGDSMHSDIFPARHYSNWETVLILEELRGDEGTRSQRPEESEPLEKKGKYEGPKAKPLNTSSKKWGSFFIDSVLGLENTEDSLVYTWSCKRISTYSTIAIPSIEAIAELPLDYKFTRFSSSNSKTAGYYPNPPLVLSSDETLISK
UniProt Q8WV22: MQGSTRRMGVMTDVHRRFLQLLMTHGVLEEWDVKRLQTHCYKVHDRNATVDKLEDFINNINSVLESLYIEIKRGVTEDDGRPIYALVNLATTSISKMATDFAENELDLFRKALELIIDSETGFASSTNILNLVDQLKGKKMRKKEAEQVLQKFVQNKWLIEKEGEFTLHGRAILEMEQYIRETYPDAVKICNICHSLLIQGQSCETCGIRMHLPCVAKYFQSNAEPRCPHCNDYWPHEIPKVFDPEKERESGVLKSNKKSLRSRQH
UniProt Q8WTT2: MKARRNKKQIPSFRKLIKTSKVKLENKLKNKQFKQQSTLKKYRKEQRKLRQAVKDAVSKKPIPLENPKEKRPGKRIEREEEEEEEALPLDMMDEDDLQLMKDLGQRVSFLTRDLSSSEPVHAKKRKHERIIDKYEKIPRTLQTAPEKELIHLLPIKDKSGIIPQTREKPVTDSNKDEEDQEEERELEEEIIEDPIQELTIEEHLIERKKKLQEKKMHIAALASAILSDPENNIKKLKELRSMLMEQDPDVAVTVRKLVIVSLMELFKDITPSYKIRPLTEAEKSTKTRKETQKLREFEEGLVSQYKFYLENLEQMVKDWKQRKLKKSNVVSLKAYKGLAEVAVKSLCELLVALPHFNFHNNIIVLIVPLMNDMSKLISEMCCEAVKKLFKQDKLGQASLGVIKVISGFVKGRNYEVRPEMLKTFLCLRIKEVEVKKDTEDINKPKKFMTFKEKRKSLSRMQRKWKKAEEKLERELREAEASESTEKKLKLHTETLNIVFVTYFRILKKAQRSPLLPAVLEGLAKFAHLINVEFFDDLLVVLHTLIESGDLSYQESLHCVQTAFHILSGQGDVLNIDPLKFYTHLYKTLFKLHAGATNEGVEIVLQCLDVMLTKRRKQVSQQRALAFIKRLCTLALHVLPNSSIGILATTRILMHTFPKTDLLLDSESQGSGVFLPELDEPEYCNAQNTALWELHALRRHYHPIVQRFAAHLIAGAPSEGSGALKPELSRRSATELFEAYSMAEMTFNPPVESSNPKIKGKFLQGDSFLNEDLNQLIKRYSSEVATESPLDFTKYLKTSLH
UniProt P46459: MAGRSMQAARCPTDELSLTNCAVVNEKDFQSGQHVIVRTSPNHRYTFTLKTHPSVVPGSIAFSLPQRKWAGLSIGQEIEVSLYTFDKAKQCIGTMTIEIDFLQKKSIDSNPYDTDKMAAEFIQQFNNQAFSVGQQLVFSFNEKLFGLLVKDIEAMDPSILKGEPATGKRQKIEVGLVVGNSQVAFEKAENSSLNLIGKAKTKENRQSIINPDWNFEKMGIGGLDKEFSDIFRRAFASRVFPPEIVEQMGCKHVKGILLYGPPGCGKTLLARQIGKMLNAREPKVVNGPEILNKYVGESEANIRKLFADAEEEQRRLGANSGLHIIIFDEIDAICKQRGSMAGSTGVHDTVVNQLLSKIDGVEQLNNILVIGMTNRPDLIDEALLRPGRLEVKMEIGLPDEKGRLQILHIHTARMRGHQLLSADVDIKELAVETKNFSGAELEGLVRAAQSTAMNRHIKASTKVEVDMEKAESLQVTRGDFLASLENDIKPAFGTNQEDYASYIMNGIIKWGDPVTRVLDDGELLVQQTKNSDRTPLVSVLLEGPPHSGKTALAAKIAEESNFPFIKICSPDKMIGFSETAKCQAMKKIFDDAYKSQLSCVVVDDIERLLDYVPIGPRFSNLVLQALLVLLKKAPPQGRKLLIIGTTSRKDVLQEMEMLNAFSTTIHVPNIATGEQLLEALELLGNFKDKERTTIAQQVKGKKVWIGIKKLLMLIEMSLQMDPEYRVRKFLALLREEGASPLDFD
UniProt Q9H0G5: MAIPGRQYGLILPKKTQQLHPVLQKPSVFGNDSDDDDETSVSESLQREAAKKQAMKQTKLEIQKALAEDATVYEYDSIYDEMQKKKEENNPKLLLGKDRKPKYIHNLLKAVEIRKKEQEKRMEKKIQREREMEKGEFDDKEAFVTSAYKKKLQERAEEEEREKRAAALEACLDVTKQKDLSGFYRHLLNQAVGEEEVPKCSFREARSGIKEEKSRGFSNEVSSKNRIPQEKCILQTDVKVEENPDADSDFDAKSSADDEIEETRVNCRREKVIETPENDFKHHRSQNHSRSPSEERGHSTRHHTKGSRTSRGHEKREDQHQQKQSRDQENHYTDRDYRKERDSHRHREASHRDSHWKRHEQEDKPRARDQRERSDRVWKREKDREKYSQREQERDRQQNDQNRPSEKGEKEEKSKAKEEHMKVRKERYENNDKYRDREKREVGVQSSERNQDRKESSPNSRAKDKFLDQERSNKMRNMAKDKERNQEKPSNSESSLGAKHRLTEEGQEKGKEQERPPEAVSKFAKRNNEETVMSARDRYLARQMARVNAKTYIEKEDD
UniProt P61916: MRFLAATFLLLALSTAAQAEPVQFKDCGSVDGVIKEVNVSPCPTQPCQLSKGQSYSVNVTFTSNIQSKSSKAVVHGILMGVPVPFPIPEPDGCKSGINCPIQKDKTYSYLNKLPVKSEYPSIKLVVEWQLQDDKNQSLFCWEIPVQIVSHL
UniProt Q86WQ0: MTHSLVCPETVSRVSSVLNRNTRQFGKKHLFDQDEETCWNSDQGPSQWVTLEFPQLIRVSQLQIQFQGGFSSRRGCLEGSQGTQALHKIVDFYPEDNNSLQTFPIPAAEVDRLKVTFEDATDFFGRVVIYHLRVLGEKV
UniProt Q9BVI4: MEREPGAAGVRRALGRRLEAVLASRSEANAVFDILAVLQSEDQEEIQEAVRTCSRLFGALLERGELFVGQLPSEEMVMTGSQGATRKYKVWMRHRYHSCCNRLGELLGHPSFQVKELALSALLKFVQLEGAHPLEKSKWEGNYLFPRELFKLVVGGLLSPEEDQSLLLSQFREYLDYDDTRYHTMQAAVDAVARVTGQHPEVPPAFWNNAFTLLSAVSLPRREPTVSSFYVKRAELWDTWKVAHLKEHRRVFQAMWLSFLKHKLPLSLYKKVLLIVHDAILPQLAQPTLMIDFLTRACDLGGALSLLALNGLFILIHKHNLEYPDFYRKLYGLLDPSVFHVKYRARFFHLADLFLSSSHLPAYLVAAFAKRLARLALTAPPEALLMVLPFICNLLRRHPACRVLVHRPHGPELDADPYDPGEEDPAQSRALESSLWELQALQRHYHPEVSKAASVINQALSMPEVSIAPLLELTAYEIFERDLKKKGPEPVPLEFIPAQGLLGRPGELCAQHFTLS

[2] = compound: CC1=C(SC2=C1C(=N[C@H](C3=NN=C(N32)C)CC(=O)N)C4=CC=C(C=C4)Cl)C
Summary of the method: as §1

[3] = compound: CC1=C2C(=CC=C1)N=C(N(C2=O)C3=CC=CC=C3C)CN4C=NC5=C(N=CN=C54)N
Summary of the method: as §1

[4] = compound: Cc1sc2c(c1C)C(c1ccc(Cl)cc1)=N[C@@H](CC(=O)OC(C)(C)C)c1nnc(C)n1-2
Summary of the method: as §1

[5] = compound: c1ccc([C@@H]2C[C@H]2NC2CCNCC2)cc1
Summary of the method: as §1

Measured: log2 fold change

NT5C (UniProt Q8TCD5)
inactive: [1] 0.014 | [2] 0.022 | [3] -0.031 | [4] -0.05 | [5] 0.017

NPC1 (UniProt O15118)
inactive: [1] 0.014 | [2] -0.032 | [3] -0.023 | [4] -0.059 | [5] -0.03

NUDC (UniProt Q9Y266)
inactive: [1] 0.024 | [2] 0.008 | [3] -0.018 | [4] -0.013 | [5] 0.036

NTMT1 (UniProt Q9BV86)
inactive: [1] -0.01 | [2] -0.036 | [3] -0.019 | [4] 0.02 | [5] 0.098

NSMCE4A (UniProt Q9NXX6)
inactive: [1] 0.046 | [2] 0.002 | [3] -0.059 | [4] 0.117 | [5] 0.017

NPEPPS (UniProt P55786)
inactive: [1] -0.007 | [2] -0.002 | [3] -0.011 | [4] -0.012 | [5] 0.01

NMT1 (UniProt P30419)
inactive: [1] 0.004 | [2] 0.002 | [3] -0.002 | [4] 0.011 | [5] 0.004

NT5C2 (UniProt P49902)
inactive: [1] -0.015 | [2] 0.016 | [3] -0.027 | [4] 0.042 | [5] 0.006

NMNAT1 (UniProt Q9HAN9)
inactive: [1] 0.083 | [2] -0.011 | [3] -0.067 | [4] -0.057 | [5] 0.028

NSUN6 (UniProt Q8TEA1)
inactive: [1] 0.018 | [2] 0 | [3] 0.03 | [4] -0.008 | [5] -0.003

NT5DC1 (UniProt Q5TFE4)
inactive: [1] -0.01 | [2] 0.006 | [3] -0.05 | [4] 0.017 | [5] 0.001

NOP56 (UniProt O00567)
inactive: [1] 0.005 | [2] 0.007 | [3] -0.014 | [4] 0.081 | [5] 0.062

NSMCE1 (UniProt Q8WV22)
inactive: [1] -0.034 | [2] 0.083 | [3] -0.004 | [4] -0.073 | [5] 0.017

NTPCR (UniProt Q9BSD7)
inactive: [1] -0.015 | [2] 0.067 | [3] -0.015 | [4] 0.034 | [5] 0.029

NTHL1 (UniProt P78549)
inactive: [1] -0.134 | [2] 0.127 | [3] -0.452 | [4] -0.038 | [5] 0.158

NUDCD3 (UniProt Q8IVD9)
inactive: [1] 0.017 | [2] 0.011 | [3] -0.014 | [4] 0.029 | [5] -0.026

5 successive entries from above, for reference:
NT5DC1 (UniProt Q5TFE4)
inactive: [1] -0.01 | [2] 0.006 | [3] -0.05 | [4] 0.017 | [5] 0.001

NOP56 (UniProt O00567)
inactive: [1] 0.005 | [2] 0.007 | [3] -0.014 | [4] 0.081 | [5] 0.062

NSMCE1 (UniProt Q8WV22)
inactive: [1] -0.034 | [2] 0.083 | [3] -0.004 | [4] -0.073 | [5] 0.017

NTPCR (UniProt Q9BSD7)
inactive: [1] -0.015 | [2] 0.067 | [3] -0.015 | [4] 0.034 | [5] 0.029

NTHL1 (UniProt P78549)
inactive: [1] -0.134 | [2] 0.127 | [3] -0.452 | [4] -0.038 | [5] 0.158

Further records

NT5C3B (UniProt Q969T7)
inactive: [1] 0.148 | [2] -0.054 | [3] 0.017 | [4] -0.004 | [5] -0.002

NUP133 (UniProt Q8WUM0)
inactive: [1] 0.05 | [2] 0.046 | [3] 0.014 | [4] 0.025 | [5] -0.052

NUDT1 (UniProt P36639)
inactive: [1] 0.041 | [2] -0.017 | [3] -0.018 | [4] 0.014 | [5] -0.004

NMI (UniProt Q13287)
inactive: [1] 0.026 | [2] 0.013 | [3] 0.005 | [4] -0.01 | [5] -0.019

NOMO2 (UniProt Q5JPE7)
inactive: [1] -0.026 | [2] 0.045 | [3] 0.013 | [4] -0.019 | [5] -0.011

NOC3L (UniProt Q8WTT2)
inactive: [1] 0.113 | [2] -0.027 | [3] -0.07 | [4] -0.023 | [5] 0.001

NSF (UniProt P46459)
inactive: [1] -0.032 | [2] 0.005 | [3] 0.005 | [4] 0.016 | [5] 0.027

NSRP1 (UniProt Q9H0G5)
inactive: [1] 0.08 | [2] -0.014 | [3] -0.014 | [4] -0.011 | [5] 0.017

NPC2 (UniProt P61916)
inactive: [1] 0.052 | [2] -0.055 | [3] -0.013 | [4] -0.011 | [5] -0.032

NR2C2AP isoform 2 (UniProt Q86WQ0)
inactive: [1] -0.099 | [2] 0.044 | [3] 0.085 | [4] 0.042 | [5] 0.022

NOC4L (UniProt Q9BVI4)
inactive: [1] -0.031 | [2] 0.02 | [3] 0.044 | [4] 0.081 | [5] 0.083

Reference: the supplement of paper PMC10849652
